{"source": "PubChem BioAssay AID493014", "about": "(National Center for Advancing Translational Sciences (NCATS), 2011)", "assay": "qHTS Assay to Find Inhibitors of Chronic Active B-Cell Receptor Signaling", "details": "ABC-DLBCL IkBa-CBG/CBR reporter, luminescence ratio (green luciferase fused to IkBa over red control in TMD8 lymphoma cells), 4 h", "in_short": "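Cell line TMD8 (human ABC DLBCL), stably expressing tet-inducible CBG68-IkBa fusion and CBR; IMDM/0.5% FBS; cpd up to 46 uM; dox induction, 4 h, 37C/5% CO2; dual luminescence; green/red ratio; MG132 control.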", "key": {"[1]": {"details": "measured here: CBR red luminescence, cell number"}, "[2]": {"details": "measured here: IkBa-CBG green luminescence"}}, "note": "Some of the results follow. These are further read-outs of the screen, such as a control signal, another cell line or another target. No call is given for them. Compounds called inactive in the main read-out are mostly missing here. Potencies come from curve fits of mixed quality, noted in brackets.", "data": [{"compound": "CCOC(=O)c1c(NC(=O)COc2ncnc3ccccc23)sc(C)c1CC", "values": [{"measurement": "AC50", "setting": "[1]", "value": "29.1 µM [falling, single point]"}]}, {"compound": "CC(C)c1cc(C(N)=O)c(NC(=O)c2cccc(COc3ccc(Br)cc3)c2)s1", "values": [{"measurement": "AC50", "setting": "[1]", "value": "1.03 µM [rising, full curve]"}]}, {"compound": "O=C(N/N=C/c1cccs1)c1ccc2ncccc2c1", "values": [{"measurement": "AC50", "setting": "[1]", "value": "11.2 µM [falling, single point]"}]}, {"compound": "CCN=c1scc(-c2ccccc2)n1/N=C/c1ccccn1", "values": [{"measurement": "AC50", "setting": "[1]", "value": "5.8 µM [rising, partial curve]"}, {"measurement": "AC50", "setting": "[2]", "value": "32.6 µM [falling, partial curve, poor fit]"}]}, {"compound": "CCC(=O)NCCc1nc2cc(NC(=O)c3cccc([N+](=O)[O-])c3)ccc2n1C", "values": [{"measurement": "AC50", "setting": "[1]", "value": "6.31 µM [falling, partial curve, poor fit]"}]}, {"compound": "Cc1ccc(CNC(=O)C2CCC(CNS(=O)(=O)c3cccs3)CC2)cc1", "note": "(stereo not drawn)", "values": [{"measurement": "AC50", "setting": "[1]", "value": "5.62 µM [rising, partial curve, poor fit]"}]}, {"compound": "CCS(=O)(=O)N1Cc2ccccc2CC1C(=O)Nc1nc2c(C)cccc2s1", "note": "(stereo not drawn)", "values": [{"measurement": "AC50", "setting": "[1]", "value": "29.1 µM [falling, single point]"}]}, {"compound": "CC(C)(C)OC(=O)N1CC=C2C(C#N)=C(N)C(C#N)(C#N)C(c3cccs3)C2C1", "note": "(stereo not drawn)", "values": [{"measurement": "AC50", "setting": "[1]", "value": "29.1 µM [falling, single point]"}]}, {"compound": "Cc1[nH]c2ccccc2c1C(=O)CSc1nc2ccccc2c(=O)n1-c1ccccc1F", "values": [{"measurement": "AC50", "setting": "[1]", "value": "3.55 µM [rising, full curve, poor fit]"}]}, {"compound": "CCc1c(O)nc(N2CCN(Cc3ccccc3)CC2)[nH]c1=O", "values": [{"measurement": "AC50", "setting": "[1]", "value": "23.1 µM [rising, single point]"}]}, {"compound": "Cc1cn(-c2cc(NC(=O)c3ccc(C)c(NC(=O)c4cccc(-c5cn[nH]c(=O)c5)c4)c3)cc(C(F)(F)F)c2)cn1", "values": [{"measurement": "AC50", "setting": "[1]", "value": "15.8 µM [falling, single point]"}]}, {"compound": "Cc1onc(-c2ccccc2)c1C(=O)OCC(=O)NCc1ccc(F)cc1", "values": [{"measurement": "AC50", "setting": "[1]", "value": "11.2 µM [rising, single point]"}]}, {"compound": "COc1ccc(OC)c(NC(=O)c2nnn(Cc3ccc(Br)cc3F)c2N)c1", "values": [{"measurement": "AC50", "setting": "[1]", "value": "5.17 µM [rising, full curve, poor fit]"}]}, {"compound": "COc1ccccc1NCCC(=O)OCC(=O)Nc1cccc(S(=O)(=O)N(C)C)c1", "values": [{"measurement": "AC50", "setting": "[1]", "value": "0.146 µM [falling, full curve, poor fit]"}]}, {"compound": "COc1ccc(/C=C/C(=O)c2ccc(NS(=O)(=O)c3ccc(C)cc3)cc2)cc1O", "values": [{"measurement": "AC50", "setting": "[1]", "value": "18.4 µM [falling, partial curve]"}]}, {"compound": "COc1cc(OC)cc(C(=O)NNC(=O)c2nn(C)c(=O)c3ccccc23)c1", "values": [{"measurement": "AC50", "setting": "[1]", "value": "11.6 µM [rising, partial curve]"}]}, {"compound": "Clc1cccc(-c2noc3ncnc(Nc4ccc5c(c4)OCO5)c23)c1", "values": [{"measurement": "AC50", "setting": "[1]", "value": "6.31 µM [rising, single point]"}]}, {"compound": "CN1CCc2c(OCC(=O)N3N=C(c4cccs4)CC3c3ccc(F)cc3)cccc2C1=O", "note": "(stereo not drawn)", "values": [{"measurement": "AC50", "setting": "[1]", "value": "29.1 µM [falling, single point]"}, {"measurement": "AC50", "setting": "[2]", "value": "2.31 µM [falling, full curve]"}]}, {"compound": "CC(=O)N(Cc1ccccc1)c1ccccc1C(=O)O", "values": [{"measurement": "AC50", "setting": "[1]", "value": "0.1 µM [rising, full curve, poor fit]"}]}, {"compound": "COc1cccc(N2CCN(C(=O)CCNS(=O)(=O)c3ccc4c(c3)c(=O)n(C)c(=O)n4C)CC2)c1", "values": [{"measurement": "AC50", "setting": "[1]", "value": "35.5 µM [falling, partial curve, poor fit]"}]}, {"compound": "COc1cc(NC(=O)CC(C)n2ccnc2)cc(OC)c1", "note": "(stereo not drawn)", "values": [{"measurement": "AC50", "setting": "[1]", "value": "3.98 µM [rising, partial curve, poor fit]"}]}, {"compound": "CCC(C)Sc1ccc(-c2nc3ccccn3c2NCc2ccccc2)cc1OC", "note": "(stereo not drawn)", "values": [{"measurement": "AC50", "setting": "[1]", "value": "29.1 µM [falling, single point]"}, {"measurement": "AC50", "setting": "[2]", "value": "32.6 µM [rising, partial curve, poor fit]"}]}, {"compound": "Cc1ccc(S(=O)(=O)N2CCOCC2)cc1C(=O)OCC(=O)N1CCc2ccccc2C1", "values": [{"measurement": "AC50", "setting": "[1]", "value": "3.66 µM [falling, single point]"}]}, {"compound": "O=[N+]([O-])c1ccc(OCC2CC(c3ccccc3)=NO2)cc1", "note": "(stereo not drawn)", "values": [{"measurement": "AC50", "setting": "[1]", "value": "0.2 µM [rising, full curve, poor fit]"}]}, {"compound": "CCCCC(=O)NC(c1ccccc1Cl)c1ccc2cccnc2c1O", "note": "(stereo not drawn)", "values": [{"measurement": "AC50", "setting": "[1]", "value": "3.55 µM [falling, full curve]"}]}, {"compound": "Cc1nc(-c2cccc(Br)c2)ccc1C(=O)O", "values": [{"measurement": "AC50", "setting": "[2]", "value": "3.16 µM [rising, full curve, poor fit]"}]}, {"compound": "O=C(CSc1nc(-c2cccs2)nc2ccccc12)NC1CCS(=O)(=O)C1", "note": "(stereo not drawn)", "values": [{"measurement": "AC50", "setting": "[1]", "value": "0.58 µM [falling, full curve, poor fit]"}]}, {"compound": "Cc1cccc(/C(N)=N/OC(=O)c2ccoc2C)c1", "values": [{"measurement": "AC50", "setting": "[1]", "value": "35.5 µM [falling, single point]"}]}, {"compound": "COc1ccc(N2CCN(C(=O)COc3ccc4c(C)cc(=O)oc4c3)CC2)cc1", "values": [{"measurement": "AC50", "setting": "[1]", "value": "12.6 µM [rising, partial curve, poor fit]"}]}, {"compound": "Cc1csc2nc(CSc3nc4ccccc4o3)cn12", "values": [{"measurement": "AC50", "setting": "[1]", "value": "17.8 µM [falling, partial curve]"}, {"measurement": "AC50", "setting": "[2]", "value": "25.1 µM [falling, single point]"}]}, {"compound": "Cc1ccc(S(=O)(=O)N2CCOCC2)cc1C(=O)Nc1ccc(-c2cn3ccsc3n2)cc1", "values": [{"measurement": "AC50", "setting": "[1]", "value": "16.4 µM [falling, single point]"}]}, {"compound": "CN(C)c1ccc(/C=C(\\C#N)c2ccccn2)cc1", "values": [{"measurement": "AC50", "setting": "[1]", "value": "6.51 µM [falling, partial curve]"}]}, {"compound": "O=C(NCCc1ccccc1)c1ccc2c(c1)OCCO2", "values": [{"measurement": "AC50", "setting": "[1]", "value": "1.41 µM [falling, full curve]"}]}, {"compound": "Oc1cccc2ccc(/C=C/c3ccc(Br)s3)nc12", "values": [{"measurement": "AC50", "setting": "[1]", "value": "7.94 µM [falling, partial curve]"}, {"measurement": "AC50", "setting": "[2]", "value": "17.8 µM [falling, partial curve, poor fit]"}]}, {"compound": "NS(=O)(=O)c1ccc(CCNC(=S)NC2CCCC2)cc1", "values": [{"measurement": "AC50", "setting": "[1]", "value": "1.26 µM [rising, partial curve, poor fit]"}]}, {"compound": "C=CCN1CC(=O)N2C(c3ccccc3)c3[nH]c4ccccc4c3C[C@H]2C1=O", "note": "(stereo partly drawn)", "values": [{"measurement": "AC50", "setting": "[1]", "value": "14.1 µM [falling, single point]"}]}, {"compound": "COc1ccc(/C=C/c2onc(C)c2S(=O)(=O)N2CCC(C(=O)N3CCCCC3)CC2)cc1", "values": [{"measurement": "AC50", "setting": "[1]", "value": "4.47 µM [rising, partial curve, poor fit]"}]}, {"compound": "Cc1ccc(-c2cn(-c3ccc(OC(F)F)cc3)c3[n+]2CCCCC3)cc1", "values": [{"measurement": "AC50", "setting": "[1]", "value": "5.62 µM [rising, single point]"}]}]}
